A short description of data set [1]: Food intake, body and organ weight in hamster hyperlipidemia model. Format: in vivo, Golden Syrian hamsters. Particulars: 6 weeks, mean ± SD. The procedure: (§1) Six different experimental diets were prepared by mixing the ingredients according to Table 1 and blending these mixtures with a gelatin solution (20 g/L) in a ratio of 200 g composition per liter of solution. Once the gelatin had set, the product were cut into pieces of approximately 10 g cubes and stored frozen at −80° C. until use.
46 male Golden Syrian hamsters (n=46; body weights=110-120 g) were housed in wire-bottomed cages at 23° C. in an animal room with 12-hour light-dark cycle (one per cage). All hamsters were maintained on a standard cereal based diet for two weeks.
(§2) After this acclimation period the hamsters were randomly divided into six test groups and fed one of the experimental diets for another six weeks.

For the next data set, the system named is Golden Syrian hamsters. Put plainly: Analysis of liver cholesterol and dihydrocholesterol in hamster hyperlipidemia model. In kind it is in vivo. Particulars: 6 weeks. The protocol: as §1, §2
Cholesterol content in organs was determined by a standard method. Cholesterol in the tissue sample was calculated according to the amount of internal standard 5α-cholestanol added.

In the case of `CC(C)CCC[C@@H](C)[C@H]1CC[C@H]2[C@@H]3CC[C@H]4C[C@@H](O)CC[C@]4(C)[C@H]3CC[C@]12C` [DHC, dihydrocholesterol], the entries for the “Daily Food Intake” value in data set [1] (0.2% in high cholesterol diet) and in data set [1] (0.3% in high cholesterol diet) were 9.79 ± 0.67 g/hamster and 10.30 ± 1.02 g/hamster, respectively.

For `CC[C@H](CC[C@@H](C)[C@H]1CC[C@H]2[C@@H]3CC=C4C[C@@H](O)CC[C@]4(C)[C@H]3CC[C@]12C)C(C)C` [β-sitosterol, reference compound], the “Daily Food Intake” value in data set [1] (0.2% in high cholesterol diet) turned out to be 10.71 ± 1.20 g/hamster; in data set [1] (0.3% in high cholesterol diet), 10.56 ± 0.79 g/hamster. Also, the “DHC accumulated in the liver” value in the data set with Golden Syrian hamsters (0.2% β-sitosterol in high cholesterol diet (SA)) and in the data set with Golden Syrian hamsters (0.3% β-sitosterol in high cholesterol diet (SB)) was 0.2 mg/g each time.

For the origin of these results see patent US20170281650A1 (priority 2014, published 2017).
